Laboratory results from publication doi:10.1101/2025.03.06.641798.

Chains of the proteins cited; added tags and fusions are not shown. Lines headed by an entry give the natural chain unless they say otherwise; changes in a name come on top.
UniProt Q86VE9: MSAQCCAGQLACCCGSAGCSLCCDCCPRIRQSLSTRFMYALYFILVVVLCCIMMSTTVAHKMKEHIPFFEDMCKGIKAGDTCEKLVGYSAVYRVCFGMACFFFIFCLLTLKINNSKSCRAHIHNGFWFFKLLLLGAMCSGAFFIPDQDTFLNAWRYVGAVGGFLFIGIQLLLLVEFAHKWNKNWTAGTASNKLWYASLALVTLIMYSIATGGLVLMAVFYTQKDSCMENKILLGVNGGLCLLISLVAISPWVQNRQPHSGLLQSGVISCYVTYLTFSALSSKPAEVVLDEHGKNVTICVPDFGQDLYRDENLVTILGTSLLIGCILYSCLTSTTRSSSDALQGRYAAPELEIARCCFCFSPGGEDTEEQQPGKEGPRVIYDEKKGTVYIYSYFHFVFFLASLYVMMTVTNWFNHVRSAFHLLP
UniProt P03407: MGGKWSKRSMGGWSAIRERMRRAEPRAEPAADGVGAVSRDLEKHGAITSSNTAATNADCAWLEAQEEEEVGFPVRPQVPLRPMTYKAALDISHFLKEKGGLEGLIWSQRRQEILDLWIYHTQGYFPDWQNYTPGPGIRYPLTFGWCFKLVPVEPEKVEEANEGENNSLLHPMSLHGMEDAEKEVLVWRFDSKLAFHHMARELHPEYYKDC

Biological target: Serine incorporator 5 (SERINC5) with a FLAG-tag (human) (UniProt Q86VE9)
Test: co-IP; Ser5-FLAG expressed with Nef-HA or glycoMA-HA in HEK293T cells; cells separated into cytosolic and plasma membrane fractions; immunoprecipitated from both fractions by anti-FLAG, detected by WB

HIV-1 Negative factor (Nef) of SF2 with an HA-tag (from UniProt P03407 1-210)
binding: no binding

No constants are given. Whether binding was seen depends on the method and setting. Binding seen in cells or lysates may run through a third protein.
